No constants are given. Whether binding was seen depends on the method and setting. Binding seen in cells or lysates may run through a third protein. Here binding means that the protein was enriched with, or labelled near, the bait; the list need not be complete.
B1: endogenous MOV10 (protein, UniProt Q9HCE1 1-1003)
chain: MPSKFSCRQLREAGQCFESFLVVRGLDMETDRERLRTIYNRDFKISFGTPAPGFSSMLYGMKIANLAYVTKTRVRFFRLDRWADVRFPEKRRMKLGSDISKHHKSLLAKIFYDRAEYLHGKHGVDVEVQGPHEARDGQLLIRLDLNRKEVLTLRLRNGGTQSVTLTHLFPLCRTPQFAFYNEDQELPCPLGPGECYELHVHCKTSFVGYFPATVLWELLGPGESGSEGAGTFYIARFLAAVAHSPLAAQLKPMTPFKRTRITGNPVVTNRIEEGERPDRAKGYDLELSMALGTYYPPPRLRQLLPMLLQGTSIFTAPKEIAEIKAQLETALKWRNYEVKLRLLLHLEELQMEHDIRHYDLESVPMTWDPVDQNPRLLTLEVPGVTESRPSVLRGDHLFALLSSETHQEDPITYKGFVHKVELDRVKLSFSMSLLSRFVDGLTFKVNFTFNRQPLRVQHRALELTGRWLLWPMLFPVAPRDVPLLPSDVKLKLYDRSLESNPEQLQAMRHIVTGTTRPAPYIIFGPPGTGKTVTLVEAIKQVVKHLPKAHILACAPSNSGADLLCQRLRVHLPSSIYRLLAPSRDIRMVPEDIKPCCNWDAKKGEYVFPAKKKLQEYRVLITTLITAGRLVSAQFPIDHFTHIFIDEAGHCMEPESLVAIAGLMEVKETGDPGGQLVLAGDPRQLGPVLRSPLTQKHGLGYSLLERLLTYNSLYKKGPDGYDPQFITKLLRNYRSHPTILDIPNQLYYEGELQACADVVDRERFCRWAGLPRQGFPIIFHGVMGKDEREGNSPSFFNPEEAATVTSYLKLLLAPSSKKGKARLSPRSVGVISPYRKQVEKIRYCITKLDRELRGLDDIKDLKVGSVEEFQGQERSVILISTVRSSQSFVQLDLDFNLGFLKNPKRFNVAVTRAKALLIIVGNPLLLGHDPDWKVFLEFCKENGGYTGCPFPAKLDLQQGQNLLQGLSKLSPSTSGPHSHDYLPQEREGEGGLSLQVEPEWRNEL
B2: endogenous GART (glycinamide ribonucleotide transformylase) (protein, UniProt P22102 1-1010)
chain: MAARVLIIGSGGREHTLAWKLAQSHHVKQVLVAPGNAGTACSEKISNTAISISDHTALAQFCKEKKIEFVVVGPEAPLAAGIVGNLRSAGVQCFGPTAEAAQLESSKRFAKEFMDRHGIPTAQWKAFTKPEEACSFILSADFPALVVKASGLAAGKGVIVAKSKEEACKAVQEIMQEKAFGAAGETIVIEELLDGEEVSCLCFTDGKTVAPMPPAQDHKRLLEGDGGPNTGGMGAYCPAPQVSNDLLLKIKDTVLQRTVDGMQQEGTPYTGILYAGIMLTKNGPKVLEFNCRFGDPECQVILPLLKSDLYEVIQSTLDGLLCTSLPVWLENHTALTVVMASKGYPGDYTKGVEITGFPEAQALGLEVFHAGTALKNGKVVTHGGRVLAVTAIRENLISALEEAKKGLAAIKFEGAIYRKDVGFRAIAFLQQPRSLTYKESGVDIAAGNMLVKKIQPLAKATSRSGCKVDLGGFAGLFDLKAAGFKDPLLASGTDGVGTKLKIAQLCNKHDTIGQDLVAMCVNDILAQGAEPLFFLDYFSCGKLDLSVTEAVVAGIAKACGKAGCALLGGETAEMPDMYPPGEYDLAGFAVGAMERDQKLPHLERITEGDVVVGIASSGLHSNGFSLVRKIVAKSSLQYSSPAPDGCGDQTLGDLLLTPTRIYSHSLLPVLRSGHVKAFAHITGGGLLENIPRVLPEKLGVDLDAQTWRIPRVFSWLQQEGHLSEEEMARTFNCGVGAVLVVSKEQTEQILRDIQQHKEEAWVIGSVVARAEGSPRVKVKNLIESMQINGSVLKNGSLTNHFSFEKKKARVAVLISGTGSNLQALIDSTREPNSSAQIDIVISNKAAVAGLDKAERAGIPTRVINHKLYKNRVEFDSAIDLVLEEFSIDIVCLAGFMRILSGPFVQKWNGKMLNIHPSLLPSFKGSNAHEQALETGVTVTGCTVHFVAEDVDAGQIILQEAVPVKRGDTVATLSERVKLAEHKIFPAALQLVASGTVQLGENGKICWVKEE
B3: endogenous ADAR (adenosine deaminase acting on RNA) (protein, UniProt P55265 1-1226)
chain: MNPRQGYSLSGYYTHPFQGYEHRQLRYQQPGPGSSPSSFLLKQIEFLKGQLPEAPVIGKQTPSLPPSLPGLRPRFPVLLASSTRGRQVDIRGVPRGVHLRSQGLQRGFQHPSPRGRSLPQRGVDCLSSHFQELSIYQDQEQRILKFLEELGEGKATTAHDLSGKLGTPKKEINRVLYSLAKKGKLQKEAGTPPLWKIAVSTQAWNQHSGVVRPDGHSQGAPNSDPSLEPEDRNSTSVSEDLLEPFIAVSAQAWNQHSGVVRPDSHSQGSPNSDPGLEPEDSNSTSALEDPLEFLDMAEIKEKICDYLFNVSDSSALNLAKNIGLTKARDINAVLIDMERQGDVYRQGTTPPIWHLTDKKRERMQIKRNTNSVPETAPAAIPETKRNAEFLTCNIPTSNASNNMVTTEKVENGQEPVIKLENRQEARPEPARLKPPVHYNGPSKAGYVDFENGQWATDDIPDDLNSIRAAPGEFRAIMEMPSFYSHGLPRCSPYKKLTECQLKNPISGLLEYAQFASQTCEFNMIEQSGPPHEPRFKFQVVINGREFPPAEAGSKKVAKQDAAMKAMTILLEEAKAKDSGKSEESSHYSTEKESEKTAESQTPTPSATSFFSGKSPVTTLLECMHKLGNSCEFRLLSKEGPAHEPKFQYCVAVGAQTFPSVSAPSKKVAKQMAAEEAMKALHGEATNSMASDNQPEGMISESLDNLESMMPNKVRKIGELVRYLNTNPVGGLLEYARSHGFAAEFKLVDQSGPPHEPKFVYQAKVGGRWFPAVCAHSKKQGKQEAADAALRVLIGENEKAERMGFTEVTPVTGASLRRTMLLLSRSPEAQPKTLPLTGSTFHDQIAMLSHRCFNTLTNSFQPSLLGRKILAAIIMKKDSEDMGVVVSLGTGNRCVKGDSLSLKGETVNDCHAEIISRRGFIRFLYSELMKYNSQTAKDSIFEPAKGGEKLQIKKTVSFHLYISTAPCGDGALFDKSCSDRAMESTESRHYPVFENPKQGKLRTKVENGEGTIPVESSDIVPTWDGIRLGERLRTMSCSDKILRWNVLGLQGALLTHFLQPIYLKSVTLGYLFSQGHLTRAICCRVTRDGSAFEDGLRHPFIVNHPKVGRVSIYDSKRQSGKTKETSVNWCLADGYDLEILDGTRGTVDGPRNELSRVSKKNIFLLFKKLCSFRYRRDLLRLSYGEAKKAARDYETAKNYFKKGLKDMGYGNWISKPQEEKNFYLCPV

These molecules were tested against StrepII-FLAG-tagged DCAF12 (WT) (human) (UniProt Q5T6F0) (assay: affinity purification with mass spectrometry; StrepII-FLAG-DCAF12 and HA-CUL4A co-expressed in HEK293T; Strep-TactinXT affinity purification followed by anti-HA immunoprecipitation; eluates of both steps analysed by LC-MS/MS; SCF^FBXL6 as control).

Molecule	binding
hemagglutinin (HA)-tagged CUL4A (from UniProt Q13619 1-759)	binds
X-linked inhibitor of apoptosis protein (XIAP) (from UniProt P98170 1-497)	binds
B1	binds
B2	binds
B3	binds
